# Measured values reported in PMC10746525.
# No constants are given. Whether binding was seen depends on the method and setting. Some results given as binding are weak or reduced against the parent protein; the word gives no strength.
# Molecular target: TRAK1_(99-532) (human) (UniProt Q9UPV9)
# Assay: mass photometry; Refeyn TwoMP, 125-150 nM protein, 100 mM NaCl, 50 μM MgCl2, 50 μM GTP with 1 mM EGTA or 100 μM CaCl2; both purified
binder,measurement,value
"TRAK1_(99-532) (domain or fragment, UniProt Q9UPV9 99-532) AERVGQMTKTYNDIDAVTRLLEEKERDLELAARIGQSLLKKNKTLTERNELLEEQVEHIREEVSQLRHELSMKDELLQFYTSAAEESEPESVCSTPLKRNESSSSVQNYFHLDSLQKKLKDLEEENVVLRSEASQLKTETITYEEKEQQLVNDCVKELRDANVQIASISEELAKKTEDAARQQEEITHLLSQIVDLQKKAKACAVENEELVQHLGAAKDAQRQLTAELRELEDKYAECMEMLHEAQEELKNLRNKTMPNTTSRRYHSLGLFPMDSLAAEIEGTMRKELQLEEAESPDITHQKRVFETVRNINQVVKQRSLTPSPMNIPGSNQSSAMNSLLSSCVSTPRSSFYGSDIGNVVLDNKTNSIILETEAADLGNDERSKKPGTPGTPGSHDLETALRRLSLRRENYLSERRFFEEEQERKLQELAEKGE",binding,binds weakly
